PubChem BioAssay AID1259308 | NCATS, 2017
Here is a random part of about 59,000 reagents tested. About 1,510 of them (2.6%) were called active. 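Calls use total luciferase alone and ignore viability, so some active siRNAs may act by altering cell number.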 Entries without a mark were called inactive. The numbers tell different reagents against one gene apart.

Assay: 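Knock-downs that increase output of a recombinant reporter protein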 (primary screen)
Cell system: human HEK293 embryonic kidney cells stably expressing firefly luciferase (HEK-CMV-Luc2-Hygro)
Reagent: single siRNA against human genes, 0.8 pmol siRNA per well
Duration: 72 h
Read-out: 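Reporter luminescence and viable-cell signal on separate replicate plates, given as percent of non-targeting control and median/MAD z-scores, plus per-cell luciferase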
Reading the numbers: total luciferase, z-score and total luciferase, % of control: higher = more reporter protein produced; luciferase per cell, z-score: higher = more reporter output per viable cell; viable cells, % of control: higher = more viable cells
Hit rule: 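Active when the median/MAD z-score for overall luciferase is greater than 3; a gene was taken forward for validation with new siRNAs if at least two of its three siRNAs passed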
Calls: active = raised luciferase; inactive = no rise

Target gene | reagent | total luciferase, z-score | total luciferase, % of control | luciferase per cell, z-score | viable cells, % of control
TIMM13 (GeneID 26517) | 1 | 2.32 | 128 | 1.69 | 91.8
TIMM13 (GeneID 26517) | 2 | -0.406 | 73.8 | -1.42 | 120
TIMM13 (GeneID 26517) | 3 | 0.049 | 82.9 | -0.278 | 99.6
FUT4 (GeneID 2526) | 1 | 0.568 | 93.2 | 0.966 | 80.8
FUT4 (GeneID 2526) | 2 | 0.76 | 97 | 0.292 | 100
FUT4 (GeneID 2526) | 3 | 0.17 | 85.3 | 0.999 | 73.2
FRS3 (GeneID 10817) | 1 | 0.911 | 100 | 0.443 | 99.5
FRS3 (GeneID 10817) | 2 | -0.171 | 78.5 | 0.741 | 72.2
FRS3 (GeneID 10817) | 3 | 0.855 | 98.9 | 1.05 | 83.9
SHISAL1 (GeneID 85352) | 1 | -0.183 | 78.3 | -0.658 | 104
SHISAL1 (GeneID 85352) | 2 | -0.185 | 78.2 | -0.268 | 93.8
SHISAL1 (GeneID 85352) | 3 | 0.905 | 99.9 | 0.133 | 108
DUSP6 (GeneID 1848) | 1 | -0.264 | 76.6 | -0.723 | 104
DUSP6 (GeneID 1848) | 2 | -0.592 | 70.1 | -0.345 | 85.8
DUSP6 (GeneID 1848) | 3 | 0.352 | 88.9 | 0.141 | 95.7
C21orf58 (GeneID 54058) | 1 | 0.818 | 98.2 | 0.455 | 97.3
C21orf58 (GeneID 54058) | 2 | -0.74 | 67.2 | -0.964 | 96.7
C21orf58 (GeneID 54058) | 3 | -1.02 | 61.7 | -0.877 | 86.8
NIBAN2 (GeneID 64855) | 1 | -0.826 | 65.4 | -1 | 95.2
NIBAN2 (GeneID 64855) | 2 | 3.15 (active) | 145 | 1.74 | 102
NIBAN2 (GeneID 64855) | 3 | 0.0567 | 83 | -0.347 | 102
HERC6 (GeneID 55008) | 1 | -1.91 | 43.9 | -1.49 | 72.6
HERC6 (GeneID 55008) | 2 | -0.267 | 76.6 | -0.146 | 88.9
HERC6 (GeneID 55008) | 3 | -0.779 | 66.4 | -0.421 | 82.9

Laid out differently: 4 of the entries above
SHISAL1 (GeneID 85352) #2
- total luciferase, z-score: -0.185
- total luciferase, % of control: 78.2
- luciferase per cell, z-score: -0.268
- viable cells, % of control: 93.8

SHISAL1 (GeneID 85352) #3
- total luciferase, z-score: 0.905
- total luciferase, % of control: 99.9
- luciferase per cell, z-score: 0.133
- viable cells, % of control: 108

DUSP6 (GeneID 1848) #1
- total luciferase, z-score: -0.264
- total luciferase, % of control: 76.6
- luciferase per cell, z-score: -0.723
- viable cells, % of control: 104

DUSP6 (GeneID 1848) #2
- total luciferase, z-score: -0.592
- total luciferase, % of control: 70.1
- luciferase per cell, z-score: -0.345
- viable cells, % of control: 85.8

The list goes on.
Target gene | reagent | total luciferase, z-score | total luciferase, % of control | luciferase per cell, z-score | viable cells, % of control
PHC1 (GeneID 1911) | 1 | 0.881 | 99.4 | 0.459 | 98.4
PHC1 (GeneID 1911) | 2 | -0.942 | 63.2 | -0.958 | 90.8
PHC1 (GeneID 1911) | 3 | -0.941 | 63.2 | -1.32 | 99.8
RTF2 (GeneID 51507) | 1 | -0.28 | 76.3 | -0.428 | 95.4
RTF2 (GeneID 51507) | 2 | -0.119 | 79.5 | 0.383 | 80.3
RTF2 (GeneID 51507) | 3 | -0.293 | 76.1 | 1.01 | 65.1
S100A16 (GeneID 140576) | 1 | -1.26 | 56.8 | -1.54 | 95.3
S100A16 (GeneID 140576) | 2 | 1.12 | 104 | 0.935 | 90.9
S100A16 (GeneID 140576) | 3 | 1.71 | 116 | 1.72 | 82.4
LINC02912 (GeneID 641384) | 1 | 0.454 | 90.9 | -0.0859 | 104
LINC02912 (GeneID 641384) | 2 | 0.11 | 84.1 | -0.0594 | 95.4
LINC02912 (GeneID 641384) | 3 | -0.489 | 72.2 | -0.786 | 99.2
C22orf23 (GeneID 84645) | 1 | -1.46 | 52.8 | -1.32 | 83.6
C22orf23 (GeneID 84645) | 2 | 0.406 | 90 | 0.0267 | 99.8
C22orf23 (GeneID 84645) | 3 | -0.266 | 76.6 | 1.05 | 64.9
